# Some of the results follow. Only hits are listed; about a third recur on repeated control peptides.
# Amino acid sequences for entries named in this document (tags omitted).
# AARS2, Q5JTZ9, UniProt Q5JTZ9, whole entry: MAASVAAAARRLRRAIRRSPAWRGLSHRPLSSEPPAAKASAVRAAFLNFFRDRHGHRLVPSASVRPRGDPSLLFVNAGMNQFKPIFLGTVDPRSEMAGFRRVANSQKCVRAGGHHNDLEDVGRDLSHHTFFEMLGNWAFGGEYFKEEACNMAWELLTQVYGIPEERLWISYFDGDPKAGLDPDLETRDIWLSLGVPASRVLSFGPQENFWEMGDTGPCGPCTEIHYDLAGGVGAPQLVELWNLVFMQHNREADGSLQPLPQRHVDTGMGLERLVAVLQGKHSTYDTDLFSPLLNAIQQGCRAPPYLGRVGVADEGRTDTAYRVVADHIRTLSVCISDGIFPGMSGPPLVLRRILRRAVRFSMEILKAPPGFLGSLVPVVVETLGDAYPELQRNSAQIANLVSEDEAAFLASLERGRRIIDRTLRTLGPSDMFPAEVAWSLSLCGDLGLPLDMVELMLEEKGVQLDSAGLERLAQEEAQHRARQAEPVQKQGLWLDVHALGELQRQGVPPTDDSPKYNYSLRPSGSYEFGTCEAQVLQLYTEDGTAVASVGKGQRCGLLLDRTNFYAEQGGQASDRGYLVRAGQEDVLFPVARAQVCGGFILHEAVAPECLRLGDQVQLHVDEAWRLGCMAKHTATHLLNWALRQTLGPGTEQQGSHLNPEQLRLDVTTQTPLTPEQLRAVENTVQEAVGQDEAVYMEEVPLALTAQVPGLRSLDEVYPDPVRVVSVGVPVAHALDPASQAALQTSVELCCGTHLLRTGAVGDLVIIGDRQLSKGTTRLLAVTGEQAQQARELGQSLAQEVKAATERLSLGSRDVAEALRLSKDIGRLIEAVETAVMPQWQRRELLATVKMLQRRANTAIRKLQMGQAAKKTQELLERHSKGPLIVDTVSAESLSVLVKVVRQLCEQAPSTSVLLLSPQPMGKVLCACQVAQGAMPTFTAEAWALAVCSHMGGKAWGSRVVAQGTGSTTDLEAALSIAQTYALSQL
# CPSF6, Q16630, UniProt Q16630, whole entry: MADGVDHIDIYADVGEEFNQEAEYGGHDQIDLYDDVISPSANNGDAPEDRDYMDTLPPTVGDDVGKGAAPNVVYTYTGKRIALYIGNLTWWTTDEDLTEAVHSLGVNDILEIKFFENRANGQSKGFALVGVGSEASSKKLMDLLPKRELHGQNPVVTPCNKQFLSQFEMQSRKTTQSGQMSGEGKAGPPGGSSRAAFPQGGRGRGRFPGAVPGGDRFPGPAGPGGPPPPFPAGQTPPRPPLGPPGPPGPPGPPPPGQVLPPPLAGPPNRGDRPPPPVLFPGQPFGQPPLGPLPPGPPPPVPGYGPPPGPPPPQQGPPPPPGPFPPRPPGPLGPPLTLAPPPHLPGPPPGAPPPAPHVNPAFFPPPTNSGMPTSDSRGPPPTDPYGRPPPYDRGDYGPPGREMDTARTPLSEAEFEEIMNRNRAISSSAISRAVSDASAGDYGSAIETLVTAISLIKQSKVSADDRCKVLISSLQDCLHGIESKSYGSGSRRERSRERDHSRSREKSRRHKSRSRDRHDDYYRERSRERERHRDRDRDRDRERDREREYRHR
# POLE, Q07864, UniProt Q07864, whole entry: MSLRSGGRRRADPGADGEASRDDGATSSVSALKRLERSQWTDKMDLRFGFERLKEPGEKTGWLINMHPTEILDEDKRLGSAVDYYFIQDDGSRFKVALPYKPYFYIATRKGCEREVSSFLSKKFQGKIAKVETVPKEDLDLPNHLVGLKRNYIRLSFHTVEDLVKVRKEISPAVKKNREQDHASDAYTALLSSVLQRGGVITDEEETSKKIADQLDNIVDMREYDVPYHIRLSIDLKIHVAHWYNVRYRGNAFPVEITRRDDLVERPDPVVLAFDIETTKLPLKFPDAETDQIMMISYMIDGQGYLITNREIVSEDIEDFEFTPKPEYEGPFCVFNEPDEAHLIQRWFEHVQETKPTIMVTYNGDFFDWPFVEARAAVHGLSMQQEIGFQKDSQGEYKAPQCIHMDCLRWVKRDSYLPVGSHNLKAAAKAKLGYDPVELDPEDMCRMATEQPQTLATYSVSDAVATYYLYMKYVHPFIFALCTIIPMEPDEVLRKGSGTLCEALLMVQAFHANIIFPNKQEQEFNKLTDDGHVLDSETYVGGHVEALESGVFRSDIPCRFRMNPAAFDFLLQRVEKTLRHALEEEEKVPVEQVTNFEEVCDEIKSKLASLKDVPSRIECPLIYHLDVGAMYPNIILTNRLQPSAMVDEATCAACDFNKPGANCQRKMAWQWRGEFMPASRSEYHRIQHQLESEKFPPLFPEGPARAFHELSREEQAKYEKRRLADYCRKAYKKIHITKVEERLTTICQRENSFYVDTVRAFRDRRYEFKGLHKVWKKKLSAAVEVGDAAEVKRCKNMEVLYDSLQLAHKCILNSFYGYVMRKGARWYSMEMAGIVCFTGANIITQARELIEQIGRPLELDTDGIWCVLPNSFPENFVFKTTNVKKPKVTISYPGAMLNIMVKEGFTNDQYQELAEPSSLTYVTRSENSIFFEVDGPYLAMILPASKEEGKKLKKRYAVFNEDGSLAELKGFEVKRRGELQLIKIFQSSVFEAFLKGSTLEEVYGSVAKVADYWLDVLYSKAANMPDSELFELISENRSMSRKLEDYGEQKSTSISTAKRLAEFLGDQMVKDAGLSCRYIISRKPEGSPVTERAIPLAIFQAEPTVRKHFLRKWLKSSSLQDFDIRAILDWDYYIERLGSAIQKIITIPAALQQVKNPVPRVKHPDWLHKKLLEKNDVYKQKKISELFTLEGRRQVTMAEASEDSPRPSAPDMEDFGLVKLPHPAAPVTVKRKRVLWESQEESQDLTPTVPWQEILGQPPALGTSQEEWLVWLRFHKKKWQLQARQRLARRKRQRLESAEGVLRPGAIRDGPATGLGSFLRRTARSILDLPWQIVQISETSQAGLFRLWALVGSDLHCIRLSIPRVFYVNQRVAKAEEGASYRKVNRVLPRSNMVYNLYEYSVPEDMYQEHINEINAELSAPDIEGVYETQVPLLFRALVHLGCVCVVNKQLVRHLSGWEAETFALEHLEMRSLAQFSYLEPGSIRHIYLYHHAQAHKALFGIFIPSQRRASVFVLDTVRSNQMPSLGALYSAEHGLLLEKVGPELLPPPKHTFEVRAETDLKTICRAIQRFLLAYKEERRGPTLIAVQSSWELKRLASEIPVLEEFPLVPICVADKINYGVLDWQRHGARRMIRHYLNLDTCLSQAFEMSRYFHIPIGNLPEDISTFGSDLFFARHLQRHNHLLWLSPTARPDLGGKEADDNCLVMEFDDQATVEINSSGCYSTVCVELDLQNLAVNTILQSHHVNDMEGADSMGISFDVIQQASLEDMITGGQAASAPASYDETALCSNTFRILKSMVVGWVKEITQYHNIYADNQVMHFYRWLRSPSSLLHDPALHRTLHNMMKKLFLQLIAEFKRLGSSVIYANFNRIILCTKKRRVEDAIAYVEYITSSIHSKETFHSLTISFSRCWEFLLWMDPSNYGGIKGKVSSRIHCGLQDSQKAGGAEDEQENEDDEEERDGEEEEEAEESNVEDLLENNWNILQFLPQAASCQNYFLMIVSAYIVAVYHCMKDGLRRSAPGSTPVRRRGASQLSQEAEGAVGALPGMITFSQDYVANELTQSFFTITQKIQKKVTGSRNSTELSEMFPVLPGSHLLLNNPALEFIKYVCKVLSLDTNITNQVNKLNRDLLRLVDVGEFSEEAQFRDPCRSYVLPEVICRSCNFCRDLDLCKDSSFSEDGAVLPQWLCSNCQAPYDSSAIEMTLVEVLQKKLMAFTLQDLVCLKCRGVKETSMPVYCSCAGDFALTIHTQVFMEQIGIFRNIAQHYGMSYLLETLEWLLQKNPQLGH
# RBBP7, Q16576, UniProt Q16576, whole entry: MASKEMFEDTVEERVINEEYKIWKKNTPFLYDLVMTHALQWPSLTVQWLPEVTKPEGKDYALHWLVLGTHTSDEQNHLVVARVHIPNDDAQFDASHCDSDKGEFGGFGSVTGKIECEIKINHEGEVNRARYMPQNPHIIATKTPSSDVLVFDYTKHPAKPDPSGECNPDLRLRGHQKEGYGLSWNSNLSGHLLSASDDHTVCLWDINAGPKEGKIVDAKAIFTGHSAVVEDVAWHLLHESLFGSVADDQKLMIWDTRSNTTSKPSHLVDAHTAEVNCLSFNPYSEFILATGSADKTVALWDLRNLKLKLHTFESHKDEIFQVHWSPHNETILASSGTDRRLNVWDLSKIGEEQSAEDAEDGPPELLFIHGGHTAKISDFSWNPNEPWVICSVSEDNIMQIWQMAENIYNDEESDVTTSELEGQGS
# SMC4, Q9NTJ3, UniProt Q9NTJ3, whole entry: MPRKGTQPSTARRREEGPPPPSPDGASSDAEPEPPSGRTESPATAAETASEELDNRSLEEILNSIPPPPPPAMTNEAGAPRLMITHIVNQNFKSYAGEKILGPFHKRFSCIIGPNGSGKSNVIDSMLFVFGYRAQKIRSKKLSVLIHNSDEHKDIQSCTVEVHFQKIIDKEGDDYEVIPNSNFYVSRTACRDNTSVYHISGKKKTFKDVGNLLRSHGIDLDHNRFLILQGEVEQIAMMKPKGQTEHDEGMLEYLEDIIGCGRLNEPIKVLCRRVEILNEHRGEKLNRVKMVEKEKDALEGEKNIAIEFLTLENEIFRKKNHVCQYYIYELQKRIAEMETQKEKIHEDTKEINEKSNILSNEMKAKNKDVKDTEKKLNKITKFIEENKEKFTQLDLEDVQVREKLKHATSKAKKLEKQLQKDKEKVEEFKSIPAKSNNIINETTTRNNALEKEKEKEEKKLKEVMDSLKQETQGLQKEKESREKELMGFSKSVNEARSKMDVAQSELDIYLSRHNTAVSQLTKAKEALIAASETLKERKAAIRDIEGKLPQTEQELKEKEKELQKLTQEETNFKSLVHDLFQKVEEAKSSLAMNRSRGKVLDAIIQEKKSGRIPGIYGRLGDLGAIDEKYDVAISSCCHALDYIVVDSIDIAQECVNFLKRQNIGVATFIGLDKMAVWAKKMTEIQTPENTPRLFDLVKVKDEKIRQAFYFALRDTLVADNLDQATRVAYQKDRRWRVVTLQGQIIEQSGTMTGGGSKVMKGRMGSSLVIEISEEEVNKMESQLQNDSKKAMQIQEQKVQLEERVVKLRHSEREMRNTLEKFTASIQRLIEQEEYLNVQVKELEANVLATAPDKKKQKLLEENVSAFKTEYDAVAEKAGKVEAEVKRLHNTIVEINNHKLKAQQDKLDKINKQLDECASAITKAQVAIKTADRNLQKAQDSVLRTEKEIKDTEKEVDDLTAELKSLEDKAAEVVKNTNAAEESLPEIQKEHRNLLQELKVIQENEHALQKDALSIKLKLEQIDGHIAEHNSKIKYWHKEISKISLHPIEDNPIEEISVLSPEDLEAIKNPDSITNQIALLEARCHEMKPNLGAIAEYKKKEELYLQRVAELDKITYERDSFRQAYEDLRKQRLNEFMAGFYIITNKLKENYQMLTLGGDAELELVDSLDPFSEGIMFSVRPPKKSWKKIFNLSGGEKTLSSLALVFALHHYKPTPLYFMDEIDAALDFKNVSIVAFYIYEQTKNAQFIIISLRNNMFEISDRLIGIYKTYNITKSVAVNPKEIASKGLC
# B1: NDUFB3 (peptide)
# chain: AEYYLESLNKDKKHH
# Tests used:
# Assay in all cases: PRISMA enrichment of interactor (LFQ) in peptide spot vs all other peptide spots (log2 fold change); higher = stronger / more specific binding of the interactor to the peptide
# AARS2, Q5JTZ9 = biological target: AARS2, Q5JTZ9
# Protocol: (§1)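 PRISMA: 15-aa overlapping tiles (offset 8 aa) of 60 microproteins, plus SOS1/GLUT1 control peptides, were spot-synthesized on cellulose membranes in triplicate. Membranes were incubated with benzonase-treated HEK293T lysate, and bound proteins were identified by LC-MS/MS with LFQ. Enrichment is the log2 fold change of each protein in one spot versus all other spots. Only interactors passing the significance cutoff are listed.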
# BAZ1B, Q9UIG0 = biological target: BAZ1B, Q9UIG0
# Protocol: as §1
# BMS1, Q14692 = biological target: BMS1, Q14692
# Protocol: as §1
# CHMP5, Q9NZZ3 = biological target: CHMP5, Q9NZZ3
# Protocol: as §1
# CPSF6, Q16630 = biological target: CPSF6, Q16630
# Protocol: as §1
# CPSF7, Q8N684 = biological target: CPSF7, Q8N684
# Protocol: as §1
# DVL2, O14641 = biological target: DVL2, O14641
# Protocol: as §1
# ECHS1, P30084 = biological target: ECHS1, P30084
# Protocol: as §1
# GAPVD1, Q14C86 = biological target: GAPVD1, Q14C86
# Protocol: as §1
# HMGB2, P26583 = biological target: HMGB2, P26583
# Protocol: as §1
# HNRNPR, O43390 = biological target: HNRNPR, O43390
# Protocol: as §1
# HS2ST1, Q7LGA3 = biological target: HS2ST1, Q7LGA3
# Protocol: as §1
# KPNA6, O60684 = biological target: KPNA6, O60684
# Protocol: as §1
# MCCC2, Q9HCC0 = biological target: MCCC2, Q9HCC0
# Protocol: as §1
# MRPL45, Q9BRJ2 = biological target: MRPL45, Q9BRJ2
# Protocol: as §1
# MTPAP, Q9NVV4 = biological target: MTPAP, Q9NVV4
# Protocol: as §1
# NACA = biological target: NACA
# Protocol: as §1
# NGDN, Q8NEJ9 = biological target: NGDN, Q8NEJ9
# Protocol: as §1
# OLA1, Q9NTK5 = biological target: OLA1, Q9NTK5
# Protocol: as §1
# OXSR1, O95747 = biological target: OXSR1, O95747
# Protocol: as §1
# POLE, Q07864 = biological target: POLE, Q07864
# Protocol: as §1
# PRRC2A, P48634 = biological target: PRRC2A, P48634
# Protocol: as §1
# RAB35, Q15286 = biological target: RAB35, Q15286
# Protocol: as §1
# RBBP7, Q16576 = biological target: RBBP7, Q16576
# Protocol: as §1
# RBM22, Q9NW64 = biological target: RBM22, Q9NW64
# Protocol: as §1
# RPL26L1, Q9UNX3 = biological target: RPL26L1, Q9UNX3
# Protocol: as §1
# SMC4, Q9NTJ3 = biological target: SMC4, Q9NTJ3
# Protocol: as §1
# STAU2, Q9NUL3 = biological target: STAU2, Q9NUL3
# Protocol: as §1
# TLN1, Q9Y490 = biological target: TLN1, Q9Y490
# Protocol: as §1
binder,measurement,setting,value
B1,PRISMA enrichment of interactor (log2),"AARS2, Q5JTZ9",4.37
same,PRISMA enrichment of interactor (log2),"BAZ1B, Q9UIG0",4.84
same,PRISMA enrichment of interactor (log2),"BMS1, Q14692",4.79
same,PRISMA enrichment of interactor (log2),"CHMP5, Q9NZZ3",4.33
same,PRISMA enrichment of interactor (log2),"CPSF6, Q16630",6.26
same,PRISMA enrichment of interactor (log2),"CPSF7, Q8N684",5.35
same,PRISMA enrichment of interactor (log2),"DVL2, O14641",7.27
same,PRISMA enrichment of interactor (log2),"ECHS1, P30084",9.66
same,PRISMA enrichment of interactor (log2),"GAPVD1, Q14C86",5.32
same,PRISMA enrichment of interactor (log2),"HMGB2, P26583",4.08
same,PRISMA enrichment of interactor (log2),"HNRNPR, O43390",6.97
same,PRISMA enrichment of interactor (log2),"HS2ST1, Q7LGA3",5.92
same,PRISMA enrichment of interactor (log2),"KPNA6, O60684",5.08
same,PRISMA enrichment of interactor (log2),"MCCC2, Q9HCC0",7.84
same,PRISMA enrichment of interactor (log2),"MRPL45, Q9BRJ2",4.63
same,PRISMA enrichment of interactor (log2),"MTPAP, Q9NVV4",4.31
same,PRISMA enrichment of interactor (log2),NACA,5.41
same,PRISMA enrichment of interactor (log2),"NGDN, Q8NEJ9",5.1
same,PRISMA enrichment of interactor (log2),"OLA1, Q9NTK5",4.73
same,PRISMA enrichment of interactor (log2),"OXSR1, O95747",6.26
same,PRISMA enrichment of interactor (log2),"POLE, Q07864",6.85
same,PRISMA enrichment of interactor (log2),"PRRC2A, P48634",4.47
same,PRISMA enrichment of interactor (log2),"RAB35, Q15286",3.84
same,PRISMA enrichment of interactor (log2),"RBBP7, Q16576",6.61
same,PRISMA enrichment of interactor (log2),"RBM22, Q9NW64",3.97
same,PRISMA enrichment of interactor (log2),"RPL26L1, Q9UNX3",4.19
same,PRISMA enrichment of interactor (log2),"SMC4, Q9NTJ3",6.46
same,PRISMA enrichment of interactor (log2),"STAU2, Q9NUL3",4.11
same,PRISMA enrichment of interactor (log2),"TLN1, Q9Y490",6.42

# 7 entries from above, tab-delimited.
binder	measurement	setting	value
B1	PRISMA enrichment of interactor (log2)	HMGB2, P26583	4.08
same	PRISMA enrichment of interactor (log2)	HS2ST1, Q7LGA3	5.92
same	PRISMA enrichment of interactor (log2)	KPNA6, O60684	5.08
same	PRISMA enrichment of interactor (log2)	MRPL45, Q9BRJ2	4.63
same	PRISMA enrichment of interactor (log2)	NACA	5.41
same	PRISMA enrichment of interactor (log2)	POLE, Q07864	6.85
same	PRISMA enrichment of interactor (log2)	RBBP7, Q16576	6.61

# Source: the supplement of paper PMC10032668
